These are yes or no findings as the source states them, for the method shown. For part of these data: Where a sequence is shown, tags or fusion partners need not be part of it. Where no end group is shown, it is not given here. GST = glutathione S-transferase fusion tag

Assay in all cases: ITC; VP-ITC, 25 °C, 50 mM Tris-HCl pH 8.0, 50 mM NaCl; for the majority the μHD (SGIP1, its mutants or FCHo1) in the cell, titrated with Eps15 fragments or peptides, for others the reverse (Supplementary Table 2); repeated twice, global fit with SEDPHAT, single-site or two-site model; both purified
Experiment [1] deals with T1, SGIP1 μHD, Ala563 replaced with Glu (human) (UniProt Q9BQI5).
T1 sequence: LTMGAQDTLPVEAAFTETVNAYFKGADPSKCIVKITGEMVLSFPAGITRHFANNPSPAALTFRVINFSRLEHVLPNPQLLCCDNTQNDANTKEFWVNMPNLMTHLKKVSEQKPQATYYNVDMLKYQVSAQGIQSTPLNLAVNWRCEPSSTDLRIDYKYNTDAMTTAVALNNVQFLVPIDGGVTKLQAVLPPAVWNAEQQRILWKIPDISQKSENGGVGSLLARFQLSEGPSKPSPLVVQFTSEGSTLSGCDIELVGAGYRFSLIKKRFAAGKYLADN

In experiment [2] the target is T2, SGIP1 μHD, Ala565 replaced with Glu (human) (UniProt Q9BQI5).
T2 sequence: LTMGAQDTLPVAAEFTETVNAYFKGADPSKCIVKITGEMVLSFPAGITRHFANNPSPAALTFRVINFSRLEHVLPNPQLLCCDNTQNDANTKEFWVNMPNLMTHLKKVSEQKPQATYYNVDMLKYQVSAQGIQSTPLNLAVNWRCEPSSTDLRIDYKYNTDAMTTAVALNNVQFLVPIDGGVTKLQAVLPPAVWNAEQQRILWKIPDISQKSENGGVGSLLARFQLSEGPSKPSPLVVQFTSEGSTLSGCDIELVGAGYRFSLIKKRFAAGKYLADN

The target of experiment [3] is T3, SGIP1 μHD, Asn670 replaced with Asp (human) (UniProt Q9BQI5).
T3 sequence: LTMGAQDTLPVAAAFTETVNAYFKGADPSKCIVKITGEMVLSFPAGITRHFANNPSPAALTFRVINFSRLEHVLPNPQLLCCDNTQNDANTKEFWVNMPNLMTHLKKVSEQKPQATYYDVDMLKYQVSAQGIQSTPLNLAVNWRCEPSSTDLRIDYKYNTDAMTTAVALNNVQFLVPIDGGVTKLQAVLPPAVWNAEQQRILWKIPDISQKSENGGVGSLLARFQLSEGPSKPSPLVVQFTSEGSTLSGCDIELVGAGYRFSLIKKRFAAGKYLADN

B1: GST-Eps15-628–654 (domain or fragment, human)
chain: {GST}-SDPFKDDPFGKIDPFGGDPFKGSDPFA
notes: source: E. coli, purified (Glutathione Sepharose 4B, glutathione elution, Superdex 200); not shown: GST, N-terminal, kept
On to B1, for which the binding result in experiment [1] and in experiment [2] was “no binding” each time.

B2: Eps15-640–649 (peptide)
peptide: YDPFGGDPFKG
modifications: N-terminal acetyl group; C-terminal amide group
B2: the binding entry in experiment [3] was “no binding”.
